Experimental data from article PMC5095148.
These are yes or no findings as the source states them, for the method shown. In cells and extracts the contact can be indirect. Some binding calls cover weakened binding; strength is not graded here. For some of these results: Where a sequence is shown, tags or fusion partners need not be part of it.

Chains of the proteins cited; added tags and fusions are not shown.
UniProt Q9H9Q2: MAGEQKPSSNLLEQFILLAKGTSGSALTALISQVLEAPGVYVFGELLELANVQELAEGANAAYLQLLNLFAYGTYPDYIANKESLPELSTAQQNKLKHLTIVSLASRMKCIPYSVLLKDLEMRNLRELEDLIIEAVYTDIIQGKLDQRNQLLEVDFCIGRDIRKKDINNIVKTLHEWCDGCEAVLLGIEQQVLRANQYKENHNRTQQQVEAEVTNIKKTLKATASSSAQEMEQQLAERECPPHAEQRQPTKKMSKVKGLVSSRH

Columns and labels:
[1] = biological target: CSN7A (COP9 signalosome subunit 7A), endogenous (human (endogenous in LiSa‐2)) (UniProt Q9UBW8); assay: co-IP; endogenous CSN complexes immunoprecipitated from LiSa‐2 cell lysates with specific anti‐CSN7A or anti‐CSN7B antibodies (Santa Cruz); western blotting of the precipitates
[2] = biological target: CSN7B (COP9 signalosome subunit 7B), endogenous (human (endogenous in LiSa‐2)) (UniProt Q9H9Q2); assay: as above
[3] = biological target: Flag‐CSN7A (human) (UniProt Q9UBW8); assay: pull-down; Flag‐pulldown: lysates of Flag‐CSN7A‐LiSa‐2 or Flag‐CSN7B‐LiSa‐2 cells on an ANTI‐FLAG M2 affinity column, washed with 20 column volumes of 1× TBS (50 mM Tris‐HCl, pH 7.4, 150 mM NaCl, 1 mM EDTA), eluted with Flag peptide (100 μg/mL); western blotting of the eluate
[4] = biological target: Flag‐CSN7B (human) (UniProt Q9H9Q2); assay: as above

binding [1]: binds | binding [2]: binds | binding [3]: binds | binding [4]: binds
B1: ubiquitin‐specific protease 15 (USP15) (enzyme, UniProt Q9Y4E8 1-981)
chain: MAEGGAADLDTQRSDIATLLKTSLRKGDTWYLVDSRWFKQWKKYVGFDSWDKYQMGDQNVYPGPIDNSGLLKDGDAQSLKEHLIDELDYILLPTEGWNKLVSWYTLMEGQEPIARKVVEQGMFVKHCKVEVYLTELKLCENGNMNNVVTRRFSKADTIDTIEKEIRKIFSIPDEKETRLWNKYMSNTFEPLNKPDSTIQDAGLYQGQVLVIEQKNEDGTWPRGPSTPKSPGASNFSTLPKISPSSLSNNYNNMNNRNVKNSNYCLPSYTAYKNYDYSEPGRNNEQPGLCGLSNLGNTCFMNSAIQCLSNTPPLTEYFLNDKYQEELNFDNPLGMRGEIAKSYAELIKQMWSGKFSYVTPRAFKTQVGRFAPQFSGYQQQDCQELLAFLLDGLHEDLNRIRKKPYIQLKDADGRPDKVVAEEAWENHLKRNDSIIVDIFHGLFKSTLVCPECAKISVTFDPFCYLTLPLPMKKERTLEVYLVRMDPLTKPMQYKVVVPKIGNILDLCTALSALSGIPADKMIVTDIYNHRFHRIFAMDENLSSIMERDDIYVFEININRTEDTEHVIIPVCLREKFRHSSYTHHTGSSLFGQPFLMAVPRNNTEDKLYNLLLLRMCRYVKISTETEETEGSLHCCKDQNINGNGPNGIHEEGSPSEMETDEPDDESSQDQELPSENENSQSEDSVGGDNDSENGLCTEDTCKGQLTGHKKRLFTFQFNNLGNTDINYIKDDTRHIRFDDRQLRLDERSFLALDWDPDLKKRYFDENAAEDFEKHESVEYKPPKKPFVKLKDCIELFTTKEKLGAEDPWYCPNCKEHQQATKKLDLWSLPPVLVVHLKRFSYSRYMRDKLDTLVDFPINDLDMSEFLINPNAGPCRYNLIAVSNHYGGMGGGHYTAFAKNKDDGKWYYFDDSSVSTASEDQIVSKAAYVLFYQRQDTFSGTGFFPLDRETKGASAATGIPLESDEDSNDNDNDIENENCMHTN
